Source: PubChem BioAssay AID504834 (National Center for Advancing Translational Sciences (NCATS), 2011)
About 22,000 (6.9%) of roughly 320,000 compounds were called active. This list was built around the results that the source calls inconclusive (neither active nor inactive); the mix of calls is not that of the screen. Calls come from the whole dose curve; as a rule, active = well fitted inhibition curve with a large enough effect; inconclusive = small, poorly fitted or top-dose-only effect, or another doubt; inactive = no such curve, though single readings can be large or run the other way. Potencies beside an inconclusive call are fits to weak or partial responses and may not hold up.

Test: Primary qHTS for delayed death inhibitors of the malarial parasite plastid, 96 hour incubation
Conditions: P. falciparum luciferase reporter growth; series mostly up to 28.7 µM; activity change, negative = inhibition: at the top concentration
Summary of the method: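 Cell-based qHTS: luciferase-tagged P. falciparum in erythrocytes (2% hematocrit, 0.05% parasitemia final) incubated with compounds for 96 hours, 37 C, 5% CO2; luciferase detection reagent then added and luminescence measured.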
% is set by controls: 0 for no effect and ±100 for the full control effect; potency is the fitted concentration of half-maximal effect.

Compound | Potency | activity change, negative = inhibition
C/C(=N\NS(=O)(=O)c1ccc(C)cc1)c1ccc(C)s1 | inconclusive: 4.65 µM [inhibitor, single point] | –
Cc1ccc(C(=O)C[n+]2cc(Br)cc(Br)c2)cc1 | inconclusive: 4.65 µM [inhibitor, partial curve] | –
CSc1nc(N)c(N=Nc2ccc([As](=O)(O)O)cc2)c(=O)[nH]1 | inconclusive: 18.5 µM [inhibitor, single point] | –
Cc1cccc(NC(=O)/C=C/c2ccc(Cl)cc2)n1 | inconclusive: 4.15 µM [inhibitor, partial curve, poor fit] | –
CCn1ccnc1CN1CCCC(CO)(Cc2cccc(OC)c2)C1 (stereo not drawn) | inconclusive: 14.7 µM [inhibitor, single point] | –
CCC(c1nnnn1C(C)(C)CC)N(CCCN1CCOCC1)Cc1cc2cccc(C)c2[nH]c1=O (stereo not drawn) | inconclusive: 8.28 µM [inhibitor, partial curve, poor fit] | –
O=C(NCCC(=O)N1CCC2(CC1)NCCc1[nH]cnc12)c1ccc(F)c(F)c1 | – | inactive: 29.3%
Cc1cccc(-c2nnnn2-c2cccc(C)c2)c1 | inconclusive: 11.7 µM [inhibitor, single point] | –
CCn1c(NC(=O)c2nn(C)cc2Br)nc2ccccc21 | inconclusive: 18.5 µM [inhibitor, single point] | –
COc1cccc(COc2ccccc2C2Nc3ccc(Br)cc3C(=O)N2NC(=O)c2ccncc2)c1 (stereo not drawn) | inconclusive: 14.7 µM [inhibitor, single point] | –
CCC(C)C(NC(N)=O)C(=O)Nc1ccc(C)c(Cl)c1 (stereo not drawn) | – | inactive: -11.9%
CC1=CC(C)(C)Nc2ccc(OC(=O)c3ccco3)cc21 | active: 9.28 µM | –
C=CCn1c2ccccc2c(=O)c2cc(C#Cc3cc(OC)cc(OC)c3)ccc21 | inconclusive: 16.5 µM [inhibitor, single point] | –
COC(=O)CNC(c1ccccc1)c1cc(Cl)ccc1NC(=O)c1cccc(Cl)c1 (stereo not drawn) | inconclusive: 10.4 µM [inhibitor, single point] | –
CCOC(=O)C1CCN(C(=O)CSc2nc(N)cc(=O)[nH]2)CC1 | inconclusive: 2.08 µM [inhibitor, full curve] | –
CC(=O)Nc1ccc(NC(=O)C(C)OC(=O)C2(c3ccc(F)cc3)CCCC2)cc1 (stereo not drawn) | inconclusive: 13.1 µM [inhibitor, partial curve, poor fit] | –
CCOC(=O)c1nn(-c2ccc(Cl)cc2)c2nc(CC)c(C#N)c(=O)n12 | inconclusive: 18.5 µM [inhibitor, single point] | –
O=C(CSC1=NNC(c2ccccn2)S1)Nc1ccccc1 (stereo not drawn) | inconclusive: 3.29 µM [inhibitor, full curve, poor fit] | –

Some of the entries above, set out differently.
CCC(c1nnnn1C(C)(C)CC)N(CCCN1CCOCC1)Cc1cc2cccc(C)c2[nH]c1=O (stereo not drawn)
  Potency: inconclusive: 8.28 µM [inhibitor, partial curve, poor fit]
O=C(NCCC(=O)N1CCC2(CC1)NCCc1[nH]cnc12)c1ccc(F)c(F)c1
  activity change, negative = inhibition: inactive: 29.3%
